Earlier results, collected in patent US6447801B1, “Anti-parasitic action of N,N-diethyl-m-toluamide (deet) and formulations that prolong its activity in the skin” (priority 1997, dated 2002).
At least one structure is not confirmed: it was looked up by name or label, or the drawing left a doubt.

Test system: cercariae
Conditions: in tissue culture / in vitro; cited from earlier work

Q: For `CO[C@H]1O[C@@H]2O[C@@]3(C)CC[C@H]4[C@H](C)CC[C@@H]([C@H]1C)[C@@]24OO3` [artemether], which cercaricidal effect is on record?
A: significant cercaricidal effects
